Data reported in doi:10.1101/2020.08.25.267237.
Positions count from the first letter of the chain named. These are yes or no findings as the source states them, for the method shown. In cells and extracts the contact can be indirect. Some entries that bind do so weakly or less than the wild type. Where a sequence is shown, tags or fusion partners need not be part of it.

T1: FLAG-MAZ (mouse cDNA) expressed in 293FT cells (mouse) (UniProt P56671)
T1 sequence: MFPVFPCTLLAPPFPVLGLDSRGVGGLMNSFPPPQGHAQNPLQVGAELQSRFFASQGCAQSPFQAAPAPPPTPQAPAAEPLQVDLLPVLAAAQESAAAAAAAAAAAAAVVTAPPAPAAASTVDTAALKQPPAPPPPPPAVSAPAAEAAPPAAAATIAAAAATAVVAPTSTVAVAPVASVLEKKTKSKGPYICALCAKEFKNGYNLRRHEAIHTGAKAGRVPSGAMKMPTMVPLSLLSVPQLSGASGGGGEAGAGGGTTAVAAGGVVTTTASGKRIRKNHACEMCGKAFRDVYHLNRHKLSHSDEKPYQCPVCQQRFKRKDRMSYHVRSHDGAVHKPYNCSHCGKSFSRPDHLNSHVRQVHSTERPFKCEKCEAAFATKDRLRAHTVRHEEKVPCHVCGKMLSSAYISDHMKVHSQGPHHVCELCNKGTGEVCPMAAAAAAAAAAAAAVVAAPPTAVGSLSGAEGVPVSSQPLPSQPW

T2: FLAG-CTCF (mouse cDNA) expressed in 293FT cells (mouse) (UniProt Q61164)
T2 sequence: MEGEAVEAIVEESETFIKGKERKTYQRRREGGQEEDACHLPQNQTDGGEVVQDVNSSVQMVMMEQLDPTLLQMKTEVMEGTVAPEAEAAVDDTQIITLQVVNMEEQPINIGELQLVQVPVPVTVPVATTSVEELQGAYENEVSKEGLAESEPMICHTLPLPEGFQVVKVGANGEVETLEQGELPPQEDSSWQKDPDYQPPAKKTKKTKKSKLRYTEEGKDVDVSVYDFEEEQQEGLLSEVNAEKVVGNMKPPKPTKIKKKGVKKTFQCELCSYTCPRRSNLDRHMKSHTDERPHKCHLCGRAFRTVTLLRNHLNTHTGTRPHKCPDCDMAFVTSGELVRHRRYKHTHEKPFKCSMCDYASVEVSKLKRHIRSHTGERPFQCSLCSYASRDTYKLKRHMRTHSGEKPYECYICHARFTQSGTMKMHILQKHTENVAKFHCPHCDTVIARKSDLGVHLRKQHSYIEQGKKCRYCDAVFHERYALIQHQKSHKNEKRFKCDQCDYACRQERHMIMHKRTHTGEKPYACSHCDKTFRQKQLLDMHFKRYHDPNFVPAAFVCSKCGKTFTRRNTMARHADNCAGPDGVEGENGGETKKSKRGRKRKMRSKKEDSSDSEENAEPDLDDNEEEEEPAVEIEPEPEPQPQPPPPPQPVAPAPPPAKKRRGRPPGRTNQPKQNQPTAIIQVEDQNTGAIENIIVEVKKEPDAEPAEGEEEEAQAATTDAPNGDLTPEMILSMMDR

B1: RAD21, cohesin subunit, endogenous in 293FT cells (protein, UniProt O60216 1-631)
chain: MFYAHFVLSKRGPLAKIWLAAHWDKKLTKAHVFECNLESSVESIISPKVKMALRTSGHLLLGVVRIYHRKAKYLLADCNEAFIKIKMAFRPGVVDLPEENREAAYNAITLPEEFHDFDQPLPDLDDIDVAQQFSLNQSRVEEITMREEVGNISILQENDFGDFGMDDREIMREGSAFEDDDMLVSTTTSNLLLESEQSTSNLNEKINHLEYEDQYKDDNFGEGNDGGILDDKLISNNDGGIFDDPPALSEAGVMLPEQPAHDDMDEDDNVSMGGPDSPDSVDPVEPMPTMTDQTTLVPNEEEAFALEPIDITVKETKAKRKRKLIVDSVKELDSKTIRAQLSDYSDIVTTLDLAPPTKKLMMWKETGGVEKLFSLPAQPLWNNRLLKLFTRCLTPLVPEDLRKRRKGGEADNLDEFLKEFENPEVPREDQQQQHQQRDVIDEPIIEEPSRLQESVMEASRTNIDESAMPPPPPQGVKRKAGQIDPEPVMPPQQVEQMEIPPVELPPEEPPNICQLIPELELLPEKEKEKEKEKEDDEEEEDEDASGGDQDQEERRWNKRTQQMLHGLQRALAKTGAESISLLELCRNTNRKQAAAKFYSFLVLKKQQAIELTQEEPYSDIIATPGPRFHII
B2: MAZ, endogenous in 293FT cells (protein, UniProt P56270 1-477)
chain: T1 sequence with V110A, T111A, A139P, A152S, V179A, S245G, T257A, T258A, V448A

Legend:
[1] = target: T1, FLAG-MAZ (mouse cDNA) expressed in 293FT cells (mouse); experiment: co-IP
[2] = target: T2, FLAG-CTCF (mouse cDNA) expressed in 293FT cells (mouse); experiment: co-IP

| Binder | binding [1] | binding [2] |
| --- | --- | --- |
| B1 | binds | binds |
| B2 | – | no binding |
